Laboratory results as given in publication PMC12489474, “New structural insights into the control of the retinoic acid receptors RAR/RXR by DNA, ligands, and transcriptional coregulators” (Nucleic Acids Research, 2025).
These are yes or no findings as the source states them, for the method shown. Some entries that bind do so weakly or less than the wild type.

T1: NCoRNID (nuclear receptor interaction domain of the Nuclear receptor CoRepressor) (UniProt Q60974)
T1 sequence: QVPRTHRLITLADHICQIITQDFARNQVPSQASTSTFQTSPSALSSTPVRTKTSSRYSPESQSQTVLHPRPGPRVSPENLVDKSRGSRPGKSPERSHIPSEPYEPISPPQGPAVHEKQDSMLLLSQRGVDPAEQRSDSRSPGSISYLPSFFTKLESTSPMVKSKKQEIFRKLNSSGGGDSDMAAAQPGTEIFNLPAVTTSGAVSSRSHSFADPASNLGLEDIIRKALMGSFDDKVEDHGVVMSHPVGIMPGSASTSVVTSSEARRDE


Tests used:
[1] = target: T1, NCoRNID (nuclear receptor interaction domain of the Nuclear receptor CoRepressor); experiment: SEC-SAXS; RAR/RXR bound to DR0L, DR1, DR5 or IR0 with BMS493, without and with NCoRNID; Superdex 200 Increase 10/300 GL, 20 mM Tris–HCl pH 7.5, 75 mM NaCl, 75 mM KCl, 2 mM CHAPS, 4 mM MgCl2, 12 mM TCEP; 15°C; both purified
[2] = target: T1, NCoRNID (nuclear receptor interaction domain of the Nuclear receptor CoRepressor); experiment: HDX-MS; RAR/RXR and RR–DNA (DR0, DR1, DR5, IR0) with and without NCoRNID, with BMS493; 4°C, 20 μM complex diluted 10-fold into deuterated buffer pD 7.5; 4 s to 10 800 s; RAR and RXR read as subunits of the heterodimer; both purified

binding [1]	binding [2]	Binder
binds	binds	RAR/RXR heterodimer (RARAΔABF with RXRAΔAB) (complex, retinoic acid receptor alpha, residues 82-421 of Uniprot entry P11416; as the chain of m1; as the chain of m2; 1:1 heterodimer by SEC-MALS; this is told in the format of each assay; also called RR–DR0; source: E. coli BL21 (DE3); RAR and RXR purified separately, mixed (2-fold excess of RAR), heterodimer purified by SEC (Superdex 200); not shown: His6, N-terminal, cleaved) chain 1: PRIYKPCFVCQDKSSGYHYGVSACEGCKGFFRRSIQKNMVYTCHRDKNCIINKVTRNRCQYCRLQKCFDVGMSKESVRNDRNKKKKEAPKPECSESYTLTPEVGELIEKVRKAHQETFPALCQLGKYTTNNSSEQRVSLDIDLWDKFSELSTKCIIKTVEFAKQLPGFTTLTIADQITLLKAACLDILILRICTRYTPEQDTMTFSDGLTLNRTQMHNAGFGPLTDLVFAFANQLLPLEMDDAETGLLSAICLICGDRQDLEQPDKVDMLQEPLLEALKVYVRKRRPSRPHMFPKMLMKITDLRSISAKGAERVITLKMEIPGSMPPLIQEMLENSEGLD chain 2: NMASFTKHICAICGDRSSGKHYGVYSCEGCKGFFKRTVRKDLTYTCRDNKDCLIDKRQRNRCQYCRYQKCLAMGMKREAVQEERQRGKDRNENEVESTSSANEDMPVERILEAELAVEPKTETYVEANMGLNPSSPNDPVTNICQAADKQLFTLVEWAKRIPHFSELPLDDQVILLRAGWNELLIASFSHRSIAVKDGILLATGLHVHRNSAHSAGVGAIFDRVLTELVSKMRDMQMDKTELGCLRAIVLFNPDSKGLSNPAEVEALREKVYASLEAYCKHKYPEQPGRFAKLLLRLPALRSIGLKCLEHLFFFKLIGDTPIDTFLMEMLEAPHQMT
–	binds	MmRARAΔABF (retinoic acid receptor alpha without the A/B and F domains) (domain or fragment, UniProt P11416 82-421, looked up, retinoic acid receptor alpha, residues 82-421 of Uniprot entry P11416 (DBD, hinge and LBD; A/B and F domains removed); In the rows of this molecule it stood as a subunit of the RAR/RXR heterodimer; Vector pET15b; also called RARα; NR1B1; source: E. coli BL21 (DE3), purified (HisTrap HP)) PRIYKPCFVCQDKSSGYHYGVSACEGCKGFFRRSIQKNMVYTCHRDKNCIINKVTRNRCQYCRLQKCFDVGMSKESVRNDRNKKKKEAPKPECSESYTLTPEVGELIEKVRKAHQETFPALCQLGKYTTNNSSEQRVSLDIDLWDKFSELSTKCIIKTVEFAKQLPGFTTLTIADQITLLKAACLDILILRICTRYTPEQDTMTFSDGLTLNRTQMHNAGFGPLTDLVFAFANQLLPLEMDDAETGLLSAICLICGDRQDLEQPDKVDMLQEPLLEALKVYVRKRRPSRPHMFPKMLMKITDLRSISAKGAERVITLKMEIPGSMPPLIQEMLENSEGLD
